According to patent EP4847509A1, “GLP-1 RECEPTOR AGONIST, AND PREPARATION METHOD THEREFOR AND USE THEREOF” (dated 2026):
Structures were worked out from names or drawings and are uncertain.

By UniProt entry, the sequences of proteins in these tests, tags left out. Residues count along the entry.
UniProt P43220, 24-463 limits assumed: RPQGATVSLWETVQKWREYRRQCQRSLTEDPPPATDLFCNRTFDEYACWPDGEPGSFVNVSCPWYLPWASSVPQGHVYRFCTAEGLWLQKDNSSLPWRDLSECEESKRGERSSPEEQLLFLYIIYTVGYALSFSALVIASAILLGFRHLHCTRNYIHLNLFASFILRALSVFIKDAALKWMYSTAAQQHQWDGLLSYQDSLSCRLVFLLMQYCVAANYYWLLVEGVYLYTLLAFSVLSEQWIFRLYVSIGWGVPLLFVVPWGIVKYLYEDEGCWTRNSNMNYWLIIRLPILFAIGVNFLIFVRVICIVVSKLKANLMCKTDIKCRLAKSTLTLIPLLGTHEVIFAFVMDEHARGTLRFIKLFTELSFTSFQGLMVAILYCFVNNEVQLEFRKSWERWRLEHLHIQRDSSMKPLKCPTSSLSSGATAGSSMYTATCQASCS

How the values were obtained:
GLP-1 receptors = GLP-1 receptors (Homo sapiens, UniProt P43220); assay: cAMP agonism test in HEK293 cells with high expression of hGLP-1R (titled in vitro cell viability test); conditions: cAMP detection
[1] = Stability in liver microsome; conditions: human liver microsome 0.5 mg/mL, 1 µM test substance, NADPH, 37°C
[2] = Pharmacokinetic study in mice; conditions: C57BL/6 mice, po, 10 mg/kg
[3] = Kinetic solubility in FaSSIF; conditions: FaSSIF pH 6.5, 25°C, 2 h, 100 µM final concentration, 0.5% DMSO

Compound Cc1cc(-n2nc3c(c2-n2ccn(-c4ccc5c(cnn5C5CC5)c4F)c2=O)[C@H](C)N(C(=O)c2cc4cc(C5CCOCC5)ccc4n2[C@@]2(c4noc(=O)[nH]4)C[C@@H]2C)CC32CC2)cc(C)c1F has an EC50 (GLP-1 receptors) of 1.25 nM.

Compound Cc1cc(-n2nc3c(c2-n2ccn(-c4ccc5c(cnn5C)c4F)c2=O)[C@H](C)N(C(=O)c2cc4cc(C5CCOCC5)ccc4n2C2(c4noc(=O)[nH]4)CC2)CC32CC2)cc(C)c1F has an EC50 (GLP-1 receptors) of 0.74 nM.

With Cc1cc(-n2nc3c(c2-n2ccn(-c4ccc5c(cnn5C5CC5)c4F)c2=O)[C@H](C)N(C(=O)c2cc4cc([C@H]5CCOC(C)(C)C5)ccc4n2[C@@]2(c4noc(=O)[nH]4)C[C@@H]2C)CC32CC2)cc(C)c1F the EC50 (GLP-1 receptors) was 1.12 nM, the “Human T1/2” value [1] was >184 min and the AUC0-24 h [2] was 87035 ng·h/mL. The Cmax [2] was 6937 ng/mL, the T1/2 [2] was 24.3 h and the “FaSSIF pH 6.5” value [3] was 37.85 µM.
